No constants are given. Whether binding was seen depends on the method and setting. Binding seen in cells or lysates may run through a third protein. A yes stands for co-enrichment or nearness to the bait. Other partners may have been found.
Legend:
[1] = target: Complement C7 (human (endogenous in normal human serum)) (UniProt P10643); assay: affinity purification with mass spectrometry; C7 captured from pooled NHS on resin-coupled anti-C7 antibody (pAb P7, mAb M7-WU4-15 or mAb M7-HB2H; Pierce Co-IP kit, overnight 4°C); eluate on non-reducing SDS-PAGE, 100 kDa and 75 kDa bands analysed by LC-MS
[2] = target: Clusterin (human (endogenous in normal human serum)) (UniProt P10909); assay: affinity purification with mass spectrometry; clusterin captured from pooled NHS on resin-coupled anti-clusterin antibody (pAb PC or mAb MC-2D5; Pierce Co-IP kit); 75 kDa band analysed by LC-MS

Chains of the proteins cited; added tags and fusions are not shown. Lines headed by an entry give the natural chain unless they say otherwise; changes in a name come on top. Residues count along the entry.
UniProt P10643, residues 23-843: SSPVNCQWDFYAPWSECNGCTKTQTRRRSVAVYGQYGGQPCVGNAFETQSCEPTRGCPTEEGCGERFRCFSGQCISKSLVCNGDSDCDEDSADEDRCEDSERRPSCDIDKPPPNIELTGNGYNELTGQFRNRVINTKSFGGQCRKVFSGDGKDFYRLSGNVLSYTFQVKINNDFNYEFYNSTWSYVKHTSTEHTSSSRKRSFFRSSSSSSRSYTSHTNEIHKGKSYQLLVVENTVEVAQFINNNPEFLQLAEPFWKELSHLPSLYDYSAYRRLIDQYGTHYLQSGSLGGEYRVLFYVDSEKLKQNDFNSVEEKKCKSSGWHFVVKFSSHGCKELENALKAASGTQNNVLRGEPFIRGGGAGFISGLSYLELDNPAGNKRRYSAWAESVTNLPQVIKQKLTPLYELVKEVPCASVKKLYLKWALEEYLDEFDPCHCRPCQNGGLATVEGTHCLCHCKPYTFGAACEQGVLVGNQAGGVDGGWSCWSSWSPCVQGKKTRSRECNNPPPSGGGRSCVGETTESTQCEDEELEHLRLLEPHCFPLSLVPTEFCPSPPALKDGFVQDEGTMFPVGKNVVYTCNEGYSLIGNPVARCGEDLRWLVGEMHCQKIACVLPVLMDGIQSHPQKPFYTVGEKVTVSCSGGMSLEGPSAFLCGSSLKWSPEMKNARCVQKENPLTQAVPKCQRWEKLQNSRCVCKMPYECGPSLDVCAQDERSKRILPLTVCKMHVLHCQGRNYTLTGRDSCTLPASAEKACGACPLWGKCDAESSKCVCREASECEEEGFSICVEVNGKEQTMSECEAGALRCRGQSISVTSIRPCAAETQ
UniProt P10909: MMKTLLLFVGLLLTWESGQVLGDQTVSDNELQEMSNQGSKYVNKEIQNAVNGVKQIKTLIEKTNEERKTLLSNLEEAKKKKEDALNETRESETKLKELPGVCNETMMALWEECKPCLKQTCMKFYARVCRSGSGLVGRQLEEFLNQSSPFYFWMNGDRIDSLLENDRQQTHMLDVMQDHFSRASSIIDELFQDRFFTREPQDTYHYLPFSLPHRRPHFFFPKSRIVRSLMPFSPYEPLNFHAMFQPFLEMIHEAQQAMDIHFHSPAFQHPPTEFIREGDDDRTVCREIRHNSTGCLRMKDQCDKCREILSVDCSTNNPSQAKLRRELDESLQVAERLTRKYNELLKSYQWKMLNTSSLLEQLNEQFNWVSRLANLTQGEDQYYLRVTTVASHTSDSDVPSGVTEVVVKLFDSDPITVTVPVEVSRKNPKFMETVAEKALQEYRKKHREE

Substance | binding [1] | binding [2]
Clusterin (from UniProt P10909 23-227; P10909 228-449) | binds | 
Complement C7 (from UniProt P10643 23-843) |  | binds
